Results of single-concentration screens

By UniProt entry, the sequences of proteins in these tests, tags left out.
UniProt P9WFT3, whole entry: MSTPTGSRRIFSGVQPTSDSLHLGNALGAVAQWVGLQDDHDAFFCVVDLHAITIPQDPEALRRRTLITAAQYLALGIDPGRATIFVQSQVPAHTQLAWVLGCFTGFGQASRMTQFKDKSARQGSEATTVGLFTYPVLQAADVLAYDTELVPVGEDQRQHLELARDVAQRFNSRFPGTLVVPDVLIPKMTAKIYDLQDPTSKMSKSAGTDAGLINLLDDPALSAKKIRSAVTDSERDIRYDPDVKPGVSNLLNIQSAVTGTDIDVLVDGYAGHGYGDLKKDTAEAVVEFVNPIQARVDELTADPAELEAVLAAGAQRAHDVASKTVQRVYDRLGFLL
UniProt P9WPC5, whole entry: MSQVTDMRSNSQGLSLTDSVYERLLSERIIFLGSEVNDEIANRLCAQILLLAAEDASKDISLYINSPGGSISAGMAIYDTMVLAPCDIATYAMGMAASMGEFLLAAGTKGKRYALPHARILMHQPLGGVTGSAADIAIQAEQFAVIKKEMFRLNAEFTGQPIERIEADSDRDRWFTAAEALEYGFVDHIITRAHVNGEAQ
UniProt P9WPC3, whole entry partner: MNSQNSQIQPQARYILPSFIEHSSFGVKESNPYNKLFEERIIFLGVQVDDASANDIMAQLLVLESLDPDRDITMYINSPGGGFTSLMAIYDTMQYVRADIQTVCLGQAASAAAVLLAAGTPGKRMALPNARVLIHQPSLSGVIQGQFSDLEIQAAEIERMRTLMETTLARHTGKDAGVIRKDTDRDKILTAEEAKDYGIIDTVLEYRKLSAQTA
UniProt P9WNZ1, whole entry: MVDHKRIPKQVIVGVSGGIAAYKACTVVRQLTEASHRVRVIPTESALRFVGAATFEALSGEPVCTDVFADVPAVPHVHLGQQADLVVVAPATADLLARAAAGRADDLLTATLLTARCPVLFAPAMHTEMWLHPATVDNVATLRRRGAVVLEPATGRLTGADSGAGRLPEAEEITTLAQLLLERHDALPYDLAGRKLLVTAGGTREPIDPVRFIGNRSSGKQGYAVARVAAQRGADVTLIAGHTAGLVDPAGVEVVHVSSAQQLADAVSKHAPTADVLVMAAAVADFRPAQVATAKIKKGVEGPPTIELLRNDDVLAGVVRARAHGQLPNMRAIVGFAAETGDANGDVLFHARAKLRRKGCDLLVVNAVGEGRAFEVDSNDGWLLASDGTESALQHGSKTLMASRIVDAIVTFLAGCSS
UniProt I6X8D2, whole entry: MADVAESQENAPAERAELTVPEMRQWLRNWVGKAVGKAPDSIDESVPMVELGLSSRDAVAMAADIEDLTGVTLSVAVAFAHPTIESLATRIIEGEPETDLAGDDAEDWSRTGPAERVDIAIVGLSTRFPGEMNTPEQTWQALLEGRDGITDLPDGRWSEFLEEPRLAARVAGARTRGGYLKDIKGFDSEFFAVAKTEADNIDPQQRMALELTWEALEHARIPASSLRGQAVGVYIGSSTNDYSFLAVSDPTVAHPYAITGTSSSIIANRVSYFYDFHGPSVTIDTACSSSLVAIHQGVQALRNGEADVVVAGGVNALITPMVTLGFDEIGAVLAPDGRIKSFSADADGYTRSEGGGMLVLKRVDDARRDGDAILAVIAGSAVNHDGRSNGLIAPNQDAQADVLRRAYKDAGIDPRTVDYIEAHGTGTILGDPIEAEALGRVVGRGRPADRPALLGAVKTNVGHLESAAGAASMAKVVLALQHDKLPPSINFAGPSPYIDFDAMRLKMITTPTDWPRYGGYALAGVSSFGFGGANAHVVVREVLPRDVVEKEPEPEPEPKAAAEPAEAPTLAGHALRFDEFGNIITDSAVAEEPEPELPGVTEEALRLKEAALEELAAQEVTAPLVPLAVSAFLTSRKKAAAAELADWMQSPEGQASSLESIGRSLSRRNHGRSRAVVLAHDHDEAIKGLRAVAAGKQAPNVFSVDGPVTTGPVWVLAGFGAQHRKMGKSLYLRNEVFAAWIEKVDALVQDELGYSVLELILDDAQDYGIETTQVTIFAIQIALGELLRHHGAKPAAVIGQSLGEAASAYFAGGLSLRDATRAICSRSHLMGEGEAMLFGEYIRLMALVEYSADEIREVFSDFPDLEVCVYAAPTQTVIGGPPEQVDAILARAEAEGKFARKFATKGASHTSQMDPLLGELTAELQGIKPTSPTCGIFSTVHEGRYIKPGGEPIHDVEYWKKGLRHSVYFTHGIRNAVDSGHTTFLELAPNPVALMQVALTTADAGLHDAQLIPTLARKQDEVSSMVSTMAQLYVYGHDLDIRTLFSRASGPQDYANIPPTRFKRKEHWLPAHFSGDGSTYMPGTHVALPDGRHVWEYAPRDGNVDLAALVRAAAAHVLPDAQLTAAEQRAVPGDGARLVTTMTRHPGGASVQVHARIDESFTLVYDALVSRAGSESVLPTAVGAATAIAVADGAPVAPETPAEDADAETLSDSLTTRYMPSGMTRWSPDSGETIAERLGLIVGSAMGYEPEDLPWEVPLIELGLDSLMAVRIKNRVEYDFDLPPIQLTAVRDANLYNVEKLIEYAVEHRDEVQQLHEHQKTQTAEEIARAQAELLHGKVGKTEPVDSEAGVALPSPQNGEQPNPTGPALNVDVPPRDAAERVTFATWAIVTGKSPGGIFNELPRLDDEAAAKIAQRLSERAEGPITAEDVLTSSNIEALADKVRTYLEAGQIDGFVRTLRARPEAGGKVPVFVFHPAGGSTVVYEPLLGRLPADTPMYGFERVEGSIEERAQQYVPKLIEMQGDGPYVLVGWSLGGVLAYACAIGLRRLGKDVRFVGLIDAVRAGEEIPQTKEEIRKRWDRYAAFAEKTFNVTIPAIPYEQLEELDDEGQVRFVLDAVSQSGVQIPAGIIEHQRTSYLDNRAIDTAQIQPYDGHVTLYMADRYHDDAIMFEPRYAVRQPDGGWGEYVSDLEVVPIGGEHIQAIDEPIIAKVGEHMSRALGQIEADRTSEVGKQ

A: 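Tryptophan-tRNA ligase, Mycobacterium tuberculosis (UniProt P9WFT3). Enzyme assay of tryptophanyl-tRNA synthetase; the read-out is not stated. Tested at 10 µM. Higher most likely means stronger inhibition; the record gives no direction and few retests gave an IC50. About 65,000 compounds were tested under these conditions; 0.098% (about 64) showed 50% or more at least once.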
B: 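Assay of Toxoplasma gondii numbers, read through their beta-galactosidase reporter with a colour substrate. Compounds at 10 µM. The record gives no direction; the compounds picked for IC50 retests had high values, so higher reads as fewer parasites. About 67,000 compounds were tested under these conditions; 0.38% (about 260) showed 50% or more at least once.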
C: 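ClpP1P2, Mycobacterium tuberculosis (UniProt P9WPC5 and UniProt P9WPC3). Protease assay of ClpP1P2, read by the AMC dye that it sets free. Concentration: 50 µM. Direction is inferred from only a few compounds that gave an IC50; most scored high, so higher reads as stronger inhibition. Most other retested compounds had strongly negative values. Size under these conditions: about 69,000 compounds, about 10 of them at 50% or above in at least one test.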
D: 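Coenzyme A biosynthesis protein CoaBC, Mycobacterium tuberculosis (UniProt P9WNZ1). Enzyme assay of CoaBC with a phosphate dye (Biomol Green) read at 650 nm. Concentration: 30 µM. Higher reads as stronger inhibition, judged from the few compounds that gave an IC50. Most strong results did not repeat in a second test. Of about 67,000 compounds tested this way, about 40 (0.06%) reached 50% or more in at least one test.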
E: 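Polyketide synthase Pks13, Mycobacterium tuberculosis (UniProt I6X8D2). Enzyme assay of the thioesterase domain of polyketide synthase 13; the read-out is not stated. Tested at 30 µM. The record gives no direction; the compounds picked for IC50 retests had high values, so higher reads as stronger inhibition. Of about 67,000 compounds tested this way, about 300 (0.46%) reached 50% or more in at least one test.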

Each number is a percent effect as filed. The controls that fix the scale are not given in the record; negative values are as filed. This is an unselected part of the compounds tested. A dash means the value is not listed here; it may have been measured.

| structure | A | B | C | D | E |
|---|---|---|---|---|---|
| `CN1CCC(c2nnc3ccc(C(=O)NC4CCCC4)cn23)C1.O=C(O)C(F)(F)F` (centres undefined) | - | 2.703 | - | - | - |
| `NC(=O)c1cn(CC2CCC2)c(C2CC2)n1` | 0.7282 | 17.23 | -2.613 | -13.8 | -10.37 |
| `CCCC(=O)N1CCCCC1c1nccc(C)n1` (centres undefined) | - | 10.04 | 11.97 | -0.3717 | -20.66 |
| `Cc1ccc(CNC(c2ccc(F)cc2)c2nccn2C)o1` (centres undefined) | -0.7692 | -20.32 | -3.098 | 1.474 | -12.55 |
| `COc1c(C)cnc(CN2CCOC(Cn3nc(C)cc3C)C2)c1C` (centres undefined) | -2.521 | -2.991 | -32.56 | 3.675 | 2.676 |
| `CCOC(=O)[C@H]1[C@@H](O)C(=O)N(C)C12CCN(C(=O)OC)CC2` | - | -14.04 | -0.1986 | 1.595 | -2.38 |
| `CCN1CCC(CC(=O)N(C)C(C)c2cncs2)CC1` (centres undefined) | -5.676 | -5.569 | 1.301 | 0.4464 | -5.807 |
| `CCc1nc(C)c(C(=O)NCCNc2ncccc2C#N)s1` | 12.57 | -11.08 | -20.44 | 1.513 | -3.826 |
| `CC(C)CNC(=O)CNC(=O)NC(c1nccs1)C1CC1` (centres undefined) | 4.235 | 6.577 | -8.874 | 5.434 | -14.65 |
| `CCN(CC)C(=O)CN1CCCC(c2nc(C)c3c(n2)N(C)CCC3)C1` (centres undefined) | -0.7473 | - | -8.951 | 8.789 | 6.251 |
| `COCCNC(=O)c1cc2c(s1)CCN2C(=O)c1ccccc1` | 0.5247 | 3.739 | 5.378 | 2.665 | -13.39 |
| `O=C(O)C(F)(F)F.O=C(O)C(F)(F)F.c1cc2nc(C3CCN(CC4CC4)CC3)nn2cc1N1CCCC1` | - | -41.28 | - | - | - |
| `CN(C)C(=O)CN1C[C@@H]2CC[C@H](C1)N(Cc1ccc3nsnc3c1)C2` | -3.232 | - | 3.139 | 2.061 | 33.34 |
| `Cc1noc(C)c1CN(C)Cn1c(=O)oc2ccccc21` | 0.7424 | -8.69 | 2.181 | 2.926 | -26.28 |
| `COc1ccc(F)c(-c2nccn2CCN2CCCC2)c1` | 10.28 | -12.36 | 7.258 | 3.99 | -14.49 |
| `COc1cccc(-c2nccc(C3CCCN3C)n2)c1` (centres undefined) | 8.492 | - | 9.085 | 1.425 | -16.47 |
| `CCC(Nc1cccc(Oc2ccccn2)c1)C(N)=O` (centres undefined) | 2.824 | 8.488 | 0.5221 | 7.438 | -10.64 |
| `[H][C@]12CCN(C(C)=O)CC[C@@]1([H])S(=O)(=O)N(CCOC)C2` | - | 4.369 | - | - | - |
| `Cc1cnn(CCNCc2csc(COc3ccccc3)n2)c1` | 3.75 | 11.38 | 4.024 | 14.7 | -5.644 |
| `CN(C)c1ccc(C(=O)N2CCCN(Cc3cnn(C)c3)CC2)nn1` | 0.4011 | -29.58 | -2.124 | 4.211 | -9.465 |
| `Cc1nc(CCNC(=O)NC2CCCc3c2cnn3CCO)cs1` (centres undefined) | 1.231 | 5.581 | 11.52 | 10.33 | -2.417 |
| `[H][C@@]12C[C@@H](C(=O)NC)N(C(C)=O)[C@]1([H])CN(Cc1ccc(C)o1)C2` | - | -16.64 | - | - | - |
| `c1csc(CNCC2COCc3c(-c4ccoc4)nnn3C2)n1` (centres undefined) | -0.8994 | - | 0.8315 | 1.97 | -0.07582 |
| `CCNC(=O)CN(CC)Cc1nc2c(F)cccc2n1CC` | 19.49 | -7.563 | 1.495 | 14.11 | -0.3887 |
| `O=C(c1ccc(NCc2cccc(F)c2)cc1)N1CCC(CO)CC1` | 2.167 | -4.223 | -2.129 | -0.4464 | 5.678 |
| `Cc1ccc(CN2CCN(C(=O)c3ccccc3O)C(C)C2=O)cc1` (centres undefined) | 10.75 | 4.76 | -1.449 | -1.148 | -6.736 |
| `CC(C)OCc1cccc(NC(=O)N(C)Cc2ncnn2C)c1` | 0.6387 | - | -7.262 | -0.123 | -10.28 |
| `Cc1ccc(N2CCO[C@H]3CN(Cc4cc(C)on4)CC[C@H]3C2=O)cn1` | 2.957 | - | -11.68 | 4.326 | -3.205 |
| `CC(=O)NCc1ccc(C(=O)NC2CCc3nc(C)cn3C2)o1` (centres undefined) | -6.466 | 4.093 | -15 | 6.464 | -9.148 |
| `O=C1NCCN1C1CCN(Cc2coc(-c3ccc(F)cc3)n2)CC1` | -6.53 | -9.001 | -26.4 | 6.769 | -2.93 |
| `COCC1c2c(cnn2C)CCN1C(=O)c1cc(C)on1` (centres undefined) | - | - | 6.314 | -2.97 | 3.384 |
| `Cc1cc(C)cc(C(=O)N2CCCN(CC(N)=O)CC2)c1` | 3.535 | -12.76 | -4.844 | 4.684 | 0.4858 |
| `Cc1ccc(O)c(C(=O)N2CCOCC2c2c(C)nn(C)c2C)c1` (centres undefined) | -8.122 | -15.81 | -4.464 | 0.9558 | -19.84 |
| `C1CCN(CCO[C@@H]2CC[C@H]3[C@H]2OCCN3CC2CCOCC2)C1` | 4.627 | - | -5.375 | 5.762 | -4.733 |
| `CCC(CC)c1cc(CNC(=O)N2CCOCC2CC)on1` (centres undefined) | -3.018 | 2.073 | -10.22 | -10.57 | -4.922 |
| `CC(Cn1cncn1)NC(=O)N1CC2(CCCC2)c2ccccc21` (centres undefined) | -4.231 | 0.7956 | -6.032 | 4.464 | -13.89 |
| `O=C(NC1CC1)c1cccc(S(=O)(=O)NCCc2nc(C3CC3)no2)c1` | -7.843 | -7.368 | -3.431 | -0.4854 | -10.49 |
| `Cc1ccnc(C2CCN(C(=O)c3cnn(C)c3)CC2)n1` | 14.58 | -40.11 | -18.13 | 10.05 | -9.756 |
| `Cc1nn(C)c(C)c1NC(=O)CNc1cccc(CC(F)(F)F)c1` | 5.432 | 2.276 | -11.34 | -5.392 | -8.908 |
| `O=S(=O)(c1ccccc1)N1CCCC(Cn2cncn2)C1` (centres undefined) | 4.871 | -16.12 | -21.93 | -8.765 | -21.21 |
| `CCC(O)CN1CCN(C(=O)c2cc3ccccc3n2CC)CC1` (centres undefined) | 84.12 | 17.28 | 1.592 | 0 | -9.541 |
| `CCC(=O)N1CCC2(CCC(N3CCCC3)c3ccccc32)CC1` (centres undefined) | -3.004 | - | -7.804 | - | -3.159 |
| `CCOC(C)c1nc(CNc2cccc(Cl)c2OC)cs1` (centres undefined) | -1.33 | 16.25 | -1.398 | 1.167 | -8.805 |
| `CC(C)OCCCNC(=O)CC1(Cn2cnnn2)CCCCC1` | 1.159 | 5.427 | -2.406 | 1.519 | -2.912 |
| `Cc1nc(C2CCCN(C(=O)c3cc(C(C)(C)C)on3)C2)no1` (centres undefined) | -7.268 | -14.39 | -10.57 | -8.864 | -5.854 |
| `CN1CCN([C@H]2COC[C@@H]3CN(Cc4cccnc4)C[C@@H]32)CC1` | -2.805 | - | -5.253 | 2.596 | -9.4 |
| `CS(=O)(=O)NC[C@H]1OC[C@@H]2CCN(CCc3ccccc3)C[C@@H]21` | - | - | -3.319 | -3.659 | -41.19 |
| `CCOC(=O)CCn1cnc2onc(-c3ccc(OC)cc3)c2c1=O` | 1.295 | -2.829 | 14.47 | 2.025 | 42.61 |
| `CCCS(=O)(=O)N1C[C@@H](c2ccccc2)[C@@]2(CCNC2=O)C1` | - | -4.198 | 2.04 | 0.4938 | -29.45 |
| `CC(NC(=O)NCCCn1cccn1)c1cccnc1` (centres undefined) | -0.7105 | -0.1101 | -17.9 | -9.375 | -2.638 |
| `CN1CCC2(CC1)CC(NC(=O)c1csnn1)c1ccccc1O2` (centres undefined) | -3.352 | - | -4.903 | 0.2463 | 1.511 |
| `CCOc1ccc2[nH]c(=O)c(CN3CCCCC3C)cc2c1` (centres undefined) | -2.389 | 10.55 | -35.73 | 3.553 | 8.541 |
| `Cn1c(-c2ccccc2Cl)nc2cc(C(=O)NCCOCCO)cnc21` | 0.08794 | 1.913 | 0.5636 | 6.438 | -35.13 |
| `Cc1cc(C)n(-c2ccc(C(=O)NCC(c3cccs3)N(C)C)cc2)n1` (centres undefined) | -1.016 | -9.362 | -8.929 | 0.6337 | -37.51 |
| `COCCN1CC(C(=O)N(C)Cc2csc(C)n2)CC1=O` (centres undefined) | 11.9 | 1.124 | -2.692 | -0.4132 | 11.52 |
| `C[C@@H]1CN(c2ccc(C#N)cn2)CC[C@@]1(O)C1CCOCC1` | 6.056 | -1.273 | -10.8 | 9.709 | 2.346 |

Repeated from the top, 6 entries:

structure	A	B	C	D	E
CN1CCC(c2nnc3ccc(C(=O)NC4CCCC4)cn23)C1.O=C(O)C(F)(F)F (centres undefined)	-	2.703	-	-	-
NC(=O)c1cn(CC2CCC2)c(C2CC2)n1	0.7282	17.23	-2.613	-13.8	-10.37
CCCC(=O)N1CCCCC1c1nccc(C)n1 (centres undefined)	-	10.04	11.97	-0.3717	-20.66
Cc1ccc(CNC(c2ccc(F)cc2)c2nccn2C)o1 (centres undefined)	-0.7692	-20.32	-3.098	1.474	-12.55
COc1c(C)cnc(CN2CCOC(Cn3nc(C)cc3C)C2)c1C (centres undefined)	-2.521	-2.991	-32.56	3.675	2.676
CCOC(=O)[C@H]1[C@@H](O)C(=O)N(C)C12CCN(C(=O)OC)CC2	-	-14.04	-0.1986	1.595	-2.38

The values are deposited in ChEMBL (CHEMBL3988442, “University of Dundee, Small-Polar-MMV Screening Library” (2021)).